# Measurements reported in PubChem BioAssay AID493014 (National Center for Advancing Translational Sciences (NCATS), 2011).
# The list shows a part of the results. Further columns of the screen follow, without active or inactive calls. Most of these compounds were active or inconclusive in the main read-out, so they are no random draw. The note in brackets gives the kind of curve behind each potency; many fits are weak.
# Experiment: qHTS Assay to Find Inhibitors of Chronic Active B-Cell Receptor Signaling
# Conditions: ABC-DLBCL IkBa-CBG/CBR reporter, luminescence ratio (green luciferase fused to IkBa over red control in TMD8 lymphoma cells), 4 h
# Outline: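 Compounds up to 46 uM were incubated four hours with TMD8 cells whose green CBG68 luciferase is fused to IkappaBalpha; red CBR luminescence normalised the signal, and concentration-effect curves were fitted to fusion, red and ratio data.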
# [1] = measured here: CBR red luminescence, cell number
# [2] = measured here: IkBa-CBG green luminescence
SMILES,AC50 [1],AC50 [2]
CCNc1c(C(=O)O)ccc2c1C(=O)c1ccccc1C2=O,"0.082 µM [rising, full curve, poor fit]",–
COc1ccccc1OCC(=O)Nc1c2c(nn1-c1ccc(F)cc1)CS(=O)(=O)C2,"5.62 µM [rising, single point]",–
CCOCCCNC(=S)N1CCCN(c2nc3cc(C)c(C)cc3cc2C#N)CC1,"35.5 µM [falling, single point]",–
COc1cc(OC)c(OC)cc1CNC(=O)c1cc(=O)c2ccccc2o1,"17.8 µM [rising, single point]",–
c1ccc2c(CSc3ncnc4nc[nH]c34)cccc2c1,"7.08 µM [rising, partial curve]","10 µM [falling, partial curve]"
CCSc1cc(C)nc2c(-c3ccccc3)cnn12,"15.8 µM [falling, single point]",–
O=C(COC(=O)c1cc(S(=O)(=O)N2CCOCC2)c(Cl)cc1Cl)c1ccc[nH]1,"25.9 µM [rising, single point]",–
CCOC(=O)/C(=N\Nc1ccc(Cl)cc1)c1csc(Nc2ccccc2)n1,"14.6 µM [rising, partial curve, poor fit]",–
O=C(C1CCN(S(=O)(=O)c2ccccc2)CC1)N1CCCCCC1,"3.55 µM [falling, partial curve, poor fit]",–
C#C[C@]1(O)CC[C@H]2[C@@H]3CCc4cc(O)ccc4[C@H]3CC[C@@]21C,–,"11.6 µM [falling, partial curve]"
Cc1ccc(NCc2nnc(SCC(=O)Nc3cccc(O)c3)n2CC2CCCO2)c(C)c1 (stereo not given),"8.91 µM [falling, partial curve, poor fit]",–
COc1ccc(C2CC(=O)N(C)c3ccccc3S2)cc1OC (stereo not given),"35.5 µM [falling, single point]","12.6 µM [falling, single point]"
COc1ccc(CCCC(=O)Nc2ccccc2F)cc1,"4.61 µM [falling, full curve]",–
Cc1ccccc1-c1nn(-c2ccc(F)cc2F)cc1CNCCCN(C)C,"20 µM [falling, partial curve, poor fit]",–
COC(=O)c1c(C)[nH]c(C(=O)CSc2ccc(Cl)cc2)c1C,"3.66 µM [rising, partial curve, poor fit]",–
Cc1noc(NS(=O)(=O)c2ccc(N/C=C/C(=O)c3ccc4c(c3)OCO4)cc2)c1C,"35.5 µM [falling, single point]",–
CCc1ccc2[nH]c(=O)c(C(c3nnnn3CCOC)N3CCN(c4ccccc4F)CC3)cc2c1 (stereo not given),"2.31 µM [rising, partial curve, poor fit]",–
CC1(C)Cc2c(C#N)c(SCCOc3ccccc3)nc(N3CCOCC3)c2CO1,"0.58 µM [falling, partial curve, poor fit]",–
O=C(CSc1cnc2ccccc2n1)c1ccc(F)cc1,"14.6 µM [falling, single point]",–
Clc1ccc2c(NCc3ccccn3)ncnc2c1,"0.82 µM [falling, full curve]",–
CCOc1ccc(OCC(=O)Nc2ccc(OC)cc2)cc1,"5.8 µM [rising, full curve, poor fit]",–

SMILES,AC50 [1],AC50 [2]
CC(=O)NC(CC(=O)NNC(=O)C(C)Oc1ccccc1F)c1ccccc1 (stereo not given),"0.731 µM [rising, full curve, poor fit]",–
CN(C)S(=O)(=O)c1cccc(C(=O)NCC2CCCO2)c1 (stereo not given),"10.3 µM [rising, partial curve, poor fit]",–
COc1ccc(NC(=O)COC(=O)c2c3c(nc4ccccc24)CCCC3)cc1Cl,"32.6 µM [falling, partial curve, poor fit]",–
COc1ccc(COC(=O)c2n[nH]c3ccccc23)cc1F,"0.651 µM [rising, full curve, poor fit]",–
COC(=O)C1CCN(C(c2cccs2)c2sc3nc(C)nn3c2O)CC1 (stereo not given),"13 µM [rising, partial curve]",–
C/C(=N\NC(=O)c1cccc(O)c1)c1ccc(NC(=O)Cc2ccccc2)cc1,"1.26 µM [falling, full curve, poor fit]",–
N#CCC(=O)Nc1ccc(C(=O)OCC(=O)Nc2cccc(C(F)(F)F)c2)cc1,"35.5 µM [falling, single point]",–
Nc1ncnc2c1C(c1ccccc1)c1c(ccc3ccccc13)O2 (stereo not given),"20.6 µM [falling, single point]",–
Cc1cc(NC(=O)CSc2nnc3ccc(-c4ccc(F)cc4)nn23)no1,"20.6 µM [rising, partial curve, poor fit]",–
O=c1c2cc(-c3ccccc3)sc2nc2n1CCC2,"2.24 µM [falling, partial curve, poor fit]",–
CC(C)c1ccc(NC(=O)C(c2ccccc2)N2CCOCC2)cc1 (stereo not given),"10 µM [rising, partial curve, poor fit]",–
CCNC(=O)N1CCC(c2nc3ccccc3s2)CC1,"0.1 µM [rising, full curve, poor fit]",–
O=C(NCC(=O)N1CCCC(C(F)(F)F)C1)c1ccc(Oc2ccccc2)cc1 (stereo not given),"11.2 µM [rising, partial curve]","7.08 µM [falling, partial curve]"
Cc1cc(C)c(S(=O)(=O)c2ccccc2)c(OC(=O)c2c(Cl)cc(Cl)cc2Cl)n1,"3.16 µM [rising, partial curve]",–
CCOc1ccc(/C(O)=C2\C(=O)C(=O)N(c3ccc(OC)cc3)C2c2ccccc2[N+](=O)[O-])cc1 (stereo not given),"8.91 µM [falling, partial curve, poor fit]",–
O=C(O)CCNc1ccc(NCCC(=O)O)c2c1C(=O)c1ccccc1C2=O,"10 µM [falling, partial curve]",–
C[C@H](CO)N1C[C@H](C)[C@@H](CN(C)C(=O)Nc2ccccc2)Oc2c(NS(=O)(=O)c3cn(C)cn3)cccc2C1=O,"5.8 µM [rising, full curve]",–
Clc1cccc(Nc2ncnc3ccc(Br)cc23)c1,"12.6 µM [falling, partial curve]",–
Cc1nn(C)cc1S(=O)(=O)N1CCN(c2ccccc2F)CC1,"5.62 µM [falling, full curve, poor fit]",–
CCc1cccc(NC(=O)c2ccc(Cn3nc(C)cc3C)o2)c1,"32.6 µM [rising, partial curve, poor fit]",–
CCOC(=O)Nc1ccc2c(COC(=O)CNS(=O)(=O)c3ccc(NC(C)=O)cc3)cc(=O)oc2c1,"7.94 µM [rising, partial curve]",–

# Single values from the list:
# Under AC50 [1], CC(=O)NC(CC(=O)NNC(=O)C(C)Oc1ccccc1F)c1ccccc1 (stereo not given) has 0.731 µM [rising, full curve, poor fit]
# Under AC50 [1], O=c1c2cc(-c3ccccc3)sc2nc2n1CCC2 has 2.24 µM [falling, partial curve, poor fit]

# Remaining list, next part

SMILES,AC50 [1],AC50 [2]
O=C(Nc1nnc(-c2ccccc2SCc2ccccc2)s1)Nc1ccccc1F,"0.631 µM [rising, full curve, poor fit]",–
N/C(=N\OC(=O)CC1CCCCC1)c1ccc(Br)cc1,"7.08 µM [rising, partial curve]",–
Cc1cn(CCC(=O)Nc2ccc(N3CCOCC3)cc2)c2ccccc12,"28.2 µM [rising, single point]",–
COc1ccc(-n2c(C)nn(CCOc3ccccc3)c2=O)cc1,"17.8 µM [rising, partial curve, poor fit]",–
O=C(N/N=C/c1c(F)c(F)c(F)c(F)c1F)c1cc(-c2ccccc2)nc2ccccc12,"35.5 µM [rising, single point]",–
CC1CCN(c2cc(N3CCOCC3)c([N+](=O)[O-])cc2F)CC1,"2.51 µM [rising, full curve]",–
CC(C)(C)C(=O)CSc1nc2ccsc2c(=O)n1Cc1ccccc1F,"35.5 µM [rising, single point]",–
CCc1cccc(C)c1N1C(=O)CC(C)(C)CC1=O,"5.62 µM [falling, single point]",–
N=C1/C(=C\c2ccc(OC(=O)c3ccc(F)cc3)cc2)C(=O)N=C2SC(N3CCOCC3)=NN12,"35.5 µM [falling, single point]",–
CCOC(=O)[C@H]1[C@H]2COc3ccc(Cl)cc3[C@@H]2N2C(=O)CN(C)C(=O)[C@@]12C,"0.731 µM [rising, full curve, poor fit]",–
O=S1(=O)CCN(Cc2ccccn2)CC1,"6.31 µM [rising, full curve, poor fit]",–
N#Cc1nc(COc2ccc(Cl)cc2Cl)oc1N1CCOCC1,"2.51 µM [rising, full curve, poor fit]",–
O=C(CSc1ccc(-c2ccccn2)nn1)N1CCCc2ccccc21,"1.12 µM [falling, partial curve, poor fit]",–
O=C(O)CCCNc1cc(N2CCC3(CC2)OCCO3)c2noc3c2c1C(=O)c1ccccc1-3,"12.6 µM [falling, partial curve]",–
CCOC(=O)N1CCN(C(=O)c2ccc(S(=O)(=O)Nc3cccc(C(F)(F)F)c3)cc2)CC1,"14.6 µM [falling, single point]",–
O=C(O)c1ccccc1SCc1cn2cc(Br)ccc2n1,"31.6 µM [rising, single point]",–
O=C(NCC(O)CN1CCOCC1)c1ccc([N+](=O)[O-])cc1 (stereo not given),"35.5 µM [rising, single point]",–
Cc1ccc(-c2cc(C(=O)N3CCN(c4ccccc4O)CC3)c3ccccc3n2)o1,"11.2 µM [falling, partial curve, poor fit]",–
Cc1c(C(=O)NCc2cccnc2)oc2ccc(S(=O)(=O)N3CCC4(CC3)OCCO4)cc12,"0.461 µM [rising, full curve, poor fit]",–
Cc1ccc(NC(=O)c2ccc(Cl)c(N3C(=O)CCC3=O)c2)cc1,"14.1 µM [falling, partial curve, poor fit]",–

# Pulled one by one from the list above (4):
SMILES,AC50 [1],AC50 [2]
Cc1cc(C)c(S(=O)(=O)c2ccccc2)c(OC(=O)c2c(Cl)cc(Cl)cc2Cl)n1,"3.16 µM [rising, partial curve]",–
COc1ccc(C2CC(=O)N(C)c3ccccc3S2)cc1OC (stereo not given),"35.5 µM [falling, single point]","12.6 µM [falling, single point]"
O=C(Nc1nnc(-c2ccccc2SCc2ccccc2)s1)Nc1ccccc1F,"0.631 µM [rising, full curve, poor fit]",–
CCc1cccc(C)c1N1C(=O)CC(C)(C)CC1=O,"5.62 µM [falling, single point]",–
